Patent US12239713B2 (NOF CORPORATION, priority 2018, dated 2025)

Test: peptide made by a vendor (peptide synthesis; N-hydroxysuccinimide)
Details: conjugation step

Sequence: CSNLSTCVLGKLSQELHKLQTYPRTNTGSGTP (SEQ ID NO: 1)
- final HPLC purity (UV 280 nm): 99%
- conjugation yield (molar yield): 44%
